Results are given in words; binding and its absence hold for the method and conditions named. In cells and extracts the contact can be indirect. These calls come from enrichment with a bait or labelling near it, and not all partners need be listed.
Molecular target: LptDE complex from Pseudomonas aeruginosa with a hexahistidine tag on LptE (Pseudomonas aeruginosa)
Assay: affinity purification with mass spectrometry

B1: endogenous E. coli lipoprotein Blc (protein, UniProt P0A901 19-177)
chain: CSSPTPPRGVTVVNNFDAKRYLGTWYEIARFDHRFERGLEKVTATYSLRDDGGLNVINKGYNPDRGMWQQSEGKAYFTGAPTRAALKVSFFGPFYGGYNVIALDREYRHALVCGPDRDYLWILSRTPTISDEVKQEMLAVATREGFDVSKFIWVQQPGS
Q: How did the binding turn out when B1 was run?
A: binds

B2: endogenous E. coli lipoprotein Slp (protein, UniProt P37194 19-188)
chain: CSSIPQNIKGNNQPDIQKSFVAVHNQPGLYVGQQARFGGKVINVINGKTDTLLEISVLPLDSYAKPDIEANYQGRLLARQSGFLDPVNYRNHFVTILGTIQGEQPGFINKVPYNFLEVNMQGIQVWHLREVVNTTYNLWDYGYGAFWPEPGWGAPYYTNAVSQVTPELVK
Q: For B2, which binding is on record?
A: binds

B3: endogenous E. coli lipoprotein YedD (natural protein)
chain: CAEVENYNNVVKTPAPDWLAGYWQTKGPQRALVSPEAIGSLIVTKEGDTLDCRQWQRVIAVPGKLTLMSDDLTNVTVKRELYEVERDGNTIEYDGMTMERVDRPTAECAAALDKAPLPTPLP
Q: With B3 as the binder, how does the binding read?
A: binds

B4: endogenous E. coli lipoprotein YbjP (protein, UniProt P75818 19-171)
chain: CTTVTPAYKDNGTRSGPCVEGGPDNVAQQFYDYRILHRSNDITALRPYLSDKLATLLSDASRDNNHRELLTNDPFSSRTTLPDSAHVASASTIPNRDARNIPLRVDLKQGDQGWQDEVLMIQEGQCWVIDDVRYLGGSVHATAGTLRQSIENR
Q: With B4 as the binder, how does the binding read?
A: binds

B5: endogenous E. coli Lpp (the Braun's lipoprotein) (protein, UniProt P69776 21-78)
chain: CSSNAKIDQLSSDVQTLNAKVDQLSNDVNAMRSDVQAAKDDAARANQRLDNMATKYRK
Q: How did the binding turn out when B5 was run?
A: binds

Reference: article doi:10.1101/2022.12.25.521893 (bioRxiv, 2022)
